Results deposited as PubChem BioAssay AID1508597 (Cure First, 2020)
Here is a random part of about 2,100 deposited reagents. 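Calls flag viability under 80% in either arm, not effects specific to rucaparib; the reference for percent is not stated.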 Some reagents were tested in more than one well and are listed for each. The record does not give: the 100% reference.

Purpose: 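Genes whose silencing sensitises or protects ovarian cancer cells against rucaparib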 (primary screen)
Cells: human ovarian carcinoma lines grown from tumours: OCI-P5x (papillary serous) and OCI-C5x (clear cell)
Reagent: siRNA pool against human genes, 1.25 pmol siRNA per well
Timing: 72 h or 96 h, depending on the cell culture
Treatment: rucaparib 20 µM (about IC30) or vehicle, present until read-out
Measurement: 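Luminescent ATP-based viability assay read 72 or 96 h after transfection, depending on culture, given as normalised percent viability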
Scale: viability, normalised: higher = more viable cells remaining
Active means: 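a well counts as a hit if its normalised viability is under 80 percent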
Calls: active = viability under 80%; inactive = viability 80% or more

With WEE2 [SID405526443], rucaparib or vehicle Rucaparib, cell line OCI-C5x (clear cell), technical replicate 1, the entry reads viability, normalised (%) = 68.4; active.
With WEE2 [SID405526443], rucaparib or vehicle Rucaparib, cell line OCI-C5x (clear cell), technical replicate 1 the deposit lists viability, normalised (%) = 51.3; active.
With WEE2 [SID405526443], rucaparib or vehicle Rucaparib, cell line OCI-C5x (clear cell), technical replicate 2 the deposit lists viability, normalised (%) = 52.4; active.
For WEE2 [SID405526443], rucaparib or vehicle Rucaparib, cell line OCI-C5x (clear cell), technical replicate 2, the entry reads viability, normalised (%) = 48; active.
With WEE2 [SID405526443], rucaparib or vehicle Rucaparib, cell line OCI-C5x (clear cell), technical replicate 3, the values are viability, normalised (%) = 58.9; active.
For WEE2 [SID405526443], rucaparib or vehicle Rucaparib, cell line OCI-C5x (clear cell), technical replicate 3 the deposit lists viability, normalised (%) = 66.3; active.
With WEE2 [SID405526443], rucaparib or vehicle Rucaparib, cell line OCI-P5x (serous), technical replicate 1, the entry reads viability, normalised (%) = 55.9; active.
For WEE2 [SID405526443], rucaparib or vehicle Rucaparib, cell line OCI-P5x (serous), technical replicate 1 the deposit lists viability, normalised (%) = 84; inactive.
WEE2 [SID405526443], rucaparib or vehicle Rucaparib, cell line OCI-P5x (serous), technical replicate 2 gave viability, normalised (%) = 74.3; active.
WEE2 [SID405526443], rucaparib or vehicle Rucaparib, cell line OCI-P5x (serous), technical replicate 2 showed viability, normalised (%) = 66.2; active.
With WEE2 [SID405526443], rucaparib or vehicle Rucaparib, cell line OCI-P5x (serous), technical replicate 3, the values are viability, normalised (%) = 47.9; active.
WEE2 [SID405526443], rucaparib or vehicle Rucaparib, cell line OCI-P5x (serous), technical replicate 3 gave viability, normalised (%) = 93.1; inactive.
WEE2 [SID405526443], rucaparib or vehicle Vehicle, cell line OCI-C5x (clear cell), technical replicate 1 showed viability, normalised (%) = 59; active.
WEE2 [SID405526443], rucaparib or vehicle Vehicle, cell line OCI-C5x (clear cell), technical replicate 1 gave viability, normalised (%) = 57.4; active.
With WEE2 [SID405526443], rucaparib or vehicle Vehicle, cell line OCI-C5x (clear cell), technical replicate 2 the deposit lists viability, normalised (%) = 50.3; active.
With WEE2 [SID405526443], rucaparib or vehicle Vehicle, cell line OCI-C5x (clear cell), technical replicate 2 the deposit lists viability, normalised (%) = 63.7; active.
For WEE2 [SID405526443], rucaparib or vehicle Vehicle, cell line OCI-C5x (clear cell), technical replicate 3 the deposit lists viability, normalised (%) = 74.6; active.
WEE2 [SID405526443], rucaparib or vehicle Vehicle, cell line OCI-C5x (clear cell), technical replicate 3 scored viability, normalised (%) = 40.2; active.
WEE2 [SID405526443], rucaparib or vehicle Vehicle, cell line OCI-P5x (serous), technical replicate 1 gave viability, normalised (%) = 82.5; inactive.
WEE2 [SID405526443], rucaparib or vehicle Vehicle, cell line OCI-P5x (serous), technical replicate 1 gave viability, normalised (%) = 55.7; active.
WEE2 [SID405526443], rucaparib or vehicle Vehicle, cell line OCI-P5x (serous), technical replicate 2 gave viability, normalised (%) = 54.9; active.
With WEE2 [SID405526443], rucaparib or vehicle Vehicle, cell line OCI-P5x (serous), technical replicate 2, the values are viability, normalised (%) = 94.7; inactive.
WEE2 [SID405526443], rucaparib or vehicle Vehicle, cell line OCI-P5x (serous), technical replicate 3 gave viability, normalised (%) = 61.2; active.
WEE2 [SID405526443], rucaparib or vehicle Vehicle, cell line OCI-P5x (serous), technical replicate 3 scored viability, normalised (%) = 91; inactive.
NEK7 [SID405527898], rucaparib or vehicle Rucaparib, cell line OCI-C5x (clear cell), technical replicate 1 gave viability, normalised (%) = 47.9; active.
For NEK7 [SID405527898], rucaparib or vehicle Rucaparib, cell line OCI-C5x (clear cell), technical replicate 2 the deposit lists viability, normalised (%) = 44.4; active.
For NEK7 [SID405527898], rucaparib or vehicle Rucaparib, cell line OCI-C5x (clear cell), technical replicate 3 the deposit lists viability, normalised (%) = 69.5; active.
With NEK7 [SID405527898], rucaparib or vehicle Rucaparib, cell line OCI-P5x (serous), technical replicate 1, the entry reads viability, normalised (%) = 87.1; inactive.
NEK7 [SID405527898], rucaparib or vehicle Rucaparib, cell line OCI-P5x (serous), technical replicate 2 gave viability, normalised (%) = 92.6; inactive.
With NEK7 [SID405527898], rucaparib or vehicle Rucaparib, cell line OCI-P5x (serous), technical replicate 3, the values are viability, normalised (%) = 75.1; active.
With NEK7 [SID405527898], rucaparib or vehicle Vehicle, cell line OCI-C5x (clear cell), technical replicate 1, the values are viability, normalised (%) = 38.5; active.
NEK7 [SID405527898], rucaparib or vehicle Vehicle, cell line OCI-C5x (clear cell), technical replicate 2 scored viability, normalised (%) = 31.9; active.
NEK7 [SID405527898], rucaparib or vehicle Vehicle, cell line OCI-C5x (clear cell), technical replicate 3 showed viability, normalised (%) = 46.7; active.
NEK7 [SID405527898], rucaparib or vehicle Vehicle, cell line OCI-P5x (serous), technical replicate 1 gave viability, normalised (%) = 85.5; inactive.
NEK7 [SID405527898], rucaparib or vehicle Vehicle, cell line OCI-P5x (serous), technical replicate 2 scored viability, normalised (%) = 66.4; active.
NEK7 [SID405527898], rucaparib or vehicle Vehicle, cell line OCI-P5x (serous), technical replicate 3 scored viability, normalised (%) = 65.7; active.
